From the supplement of paper PMC12823440, “Inhibitors supercharge kinase turnover through native proteolytic circuits” (Nature, 2025)
Where a name gives a salt, the structure may show the parent alone. This is one part of the list. The calls rarely recur for the same compound in another form.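 In K562 cells expressing nanoluciferase-fused kinases, luminescence was recorded at 4 h intervals between 2 and 18 h, normalized as percent of control with DMSO at 100% and a positive control at 0%. A significant (2 sigma) signal drop marks a time point as decreased. The authors' rule for a hit is not shown and takes in more than the number of time points.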

Amino acid sequences for entries named in this document (tags omitted).
UniProt Q00535, whole entry, looked up: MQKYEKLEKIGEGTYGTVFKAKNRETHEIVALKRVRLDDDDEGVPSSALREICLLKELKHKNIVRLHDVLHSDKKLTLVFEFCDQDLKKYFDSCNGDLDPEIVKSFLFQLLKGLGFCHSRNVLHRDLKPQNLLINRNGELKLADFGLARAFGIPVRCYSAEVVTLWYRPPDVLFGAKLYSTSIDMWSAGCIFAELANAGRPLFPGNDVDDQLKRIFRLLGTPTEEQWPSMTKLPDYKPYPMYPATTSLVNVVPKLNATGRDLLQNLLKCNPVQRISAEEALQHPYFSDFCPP

Target: CDK5 (UniProt Q00535)
Experiment: kinase-Nluc reporter destabilization hit call (1 = scored as downregulated) (binary); higher = compound decreases kinase abundance
Conditions: K562; 2-18 h

kinase-Nluc reporter destabilization hit call, inactive:
N#Cc1ccc2[nH]c(O)c(-c3ccc(CN4CCOCC4)cn3)c2c1 (10 µM) 0
O=C1NCCc2[nH]c(-c3ccnc(-c4cnc5ccccc5c4)c3)cc21 (10 µM) 0
Oc1cc(O)cc(/C=C/c2ccc(O)c(O)c2)c1 [Piceatannol] (10 µM) 0
O=C(NOC[C@H](O)CO)c1ccc(F)c(F)c1Nc1ccc(I)cc1F (2.5 µM) 0
Cn1c(=O)n(-c2ccc(C(C)(C)C#N)cc2)c2c3cc(-c4cnc5ccccc5c4)ccc3ncc21 [Dactolisib (Tosylate)] (10 µM) 0
CCCCNc1ncc(-c2ccc(CN3CCOCC3)cn2)c(NC2CCC(O)CC2)n1 (stereo unspecified) (10 µM) 0
O=C(Nc1cc(C(F)(F)F)ccc1N1CCN(Cc2ccccn2)CC1)c1ccc(-c2ccncc2)o1 (10 µM) 0
COC(=O)c1ccc2c(C(=Nc3ccc(N(C)C(=O)CN4CCN(C)CC4)cc3)c3ccccc3)c(O)[nH]c2c1 [Nintedanib] (2.5 µM) 0
COc1cc(F)cc([C@@H](CO)NC(=O)[C@@H](C)N2Cc3ccc(-c4nc(NC5CCOCC5)ncc4Cl)cc3C2=O)c1 [ERK1/2 inhibitor 2] (10 µM) 0
CC(C)c1ccc2oc3nc(N)c(C(=O)O)cc3c(=O)c2c1 [Amlexanox] (10 µM) 0
CN(C)C[C@@H]1CCn2cc(c3ccccc32)C2=C(C(=O)NC2=O)c2cn(c3ccccc23)CCO1 [Ruboxistaurin (hydrochloride)] (10 µM) 0

Structures above containing an NH in an aromatic ring, in the order listed:
kinase-Nluc reporter destabilization hit call, inactive:
N#Cc1ccc2[nH]c(O)c(-c3ccc(CN4CCOCC4)cn3)c2c1 (10 µM) 0
O=C1NCCc2[nH]c(-c3ccnc(-c4cnc5ccccc5c4)c3)cc21 (10 µM) 0
COC(=O)c1ccc2c(C(=Nc3ccc(N(C)C(=O)CN4CCN(C)CC4)cc3)c3ccccc3)c(O)[nH]c2c1 [Nintedanib] (2.5 µM) 0
